Drawing on the supplement of paper PMC3682954, this text covers cell viability for 40 compounds.

The structures appear in SMILES notation. Where “and” joins values, the source holds several entries; their conditions need not be identical. Identical values can stand only once. Counter-ions that a name gives are not always drawn. ± gives the standard deviation of the averaged measurements. This is one part of the list. Most values come without repeats; read them as rough.

In this test the test system is RAW 264.7. Kind of test: cell viability (MTT) relative to vehicle control; higher = more viable cells. As to conditions: stimulus: HMGB1 5 ug/ml, 18 h.
The mark [1] stands for this setting: compound concentration: 1 ug/ml.

One may read the cell viability as a read-out of living cells in per cent, often relative to untreated cells.

Turning to `CCc1c(C)[nH]c2c1C(=O)C(CN1CCOCC1)CC2` (configuration not stated) [Molindone hydrochloride], the cell viability (compound concentration: 3 uM) turned out to be 93 ± 6.7%.
As to `Nc1ccc(N2C(=O)c3ccccc3C2=O)c(Cl)c1` [N-(4-Amino-2-chlorophenyl)phthalimide], for the setting “compound concentration: 3 uM”, the cell viability stood at 101%.
With `CN1CCc2cc(Cl)c(O)cc2[C@@H](c2ccccc2)C1`, for the setting “compound concentration: 3 uM”, the cell viability turned out to be 95.1 ± 1.3%.
The same measure, in the same setting: with `Cc1ncc(CO)c(CO)c1O` the figure was 108%.
On the same count and under the same terms, in the case of `Cc1ncc(CO)c(CO)c1O` [Pyridoxine hydrochloride] it was 116%; in that of `COc1cc2c3cc1Oc1cc(ccc1O)C[C@@H]1c4c(cc(OC)c(O)c4Oc4ccc(cc4)C[C@@H]3N(C)CC2)CC[N+]1(C)C`, 104%.
As to `CC1(C)[C@H](C(=O)O)N2C(=O)C[C@H]2S1(=O)=O` [Sulbactam], where the note is “compound concentration: 3 uM”, the cell viability came out at 97.2 ± 3.3%.
Still for that read-out and setting: with `Clc1ccc(CO/N=C(\Cn2ccnc2)c2ccc(Cl)cc2Cl)c(Cl)c1` [Oxiconazole Nitrate] the figure was 119%; with `Clc1ccc(CO/N=C(\Cn2ccnc2)c2ccc(Cl)cc2Cl)c(Cl)c1`, 110 ± 1.4%; with `Clc1ccc(CO/N=C(\Cn2ccnc2)c2ccc(Cl)cc2Cl)c(Cl)c1` [Oxiconazole], 103%.
Still for that read-out and setting: with `O=C(O)C1CCCN(CCC=C(c2ccccc2)c2ccccc2)C1` (configuration not stated) the figure was 112%.
Still for that read-out and setting: in the case of `CC(=O)O[C@]1(C(C)=O)CC[C@H]2[C@@H]3C=C(Cl)C4=CC(=O)[C@@H]5C[C@@H]5[C@]4(C)[C@H]3CC[C@@]21C` [Cyproterone Acetate] it was 100%.
On to `CC(=O)O[C@]1(C(C)=O)CC[C@H]2[C@@H]3C=C(Cl)C4=CC(=O)[C@@H]5C[C@@H]5[C@]4(C)[C@H]3CC[C@@]21C`, for which the cell viability (compound concentration: 3 uM) is 101%.
Turning to `CC(=O)O[C@]1(C(C)=O)CC[C@H]2[C@@H]3C=C(Cl)C4=CC(=O)[C@@H]5C[C@@H]5[C@]4(C)[C@H]3CC[C@@]21C` [Cyproterone acetate], the cell viability was 105% under setting [1] and 99.3 ± 1.6% (compound concentration: 3 uM).
On to `COc1ccc2cc([C@H](C)CO)ccc2c1`, for which the cell viability (compound concentration: 3 uM) was found to be 99.7%.
The same measure, in the same setting: with `C#C[C@]1(OC(C)=O)CC[C@H]2[C@@H]3CCC4=CC(=NO)CC[C@@H]4[C@H]3CC[C@@]21CC` (mixture of isomers) [Norgestimate] the figure was 80.1%; with `C#C[C@]1(OC(C)=O)CC[C@H]2[C@@H]3CCC4=CC(=NO)CC[C@@H]4[C@H]3CC[C@@]21CC` (mixture of isomers), 106%.
Same read-out and setting: in the case of `N[C@@H]1CONC1=O` [D-cycloserine] it was 98.7%; in that of `N[C@@H]1CONC1=O`, 99.9% and 97%.
With `N[C@@H]1CONC1=O` [D-Cycloserine], under “compound concentration: 3 uM”, the cell viability stood at 108%.
`O=C(O)COCCN1CCN(C(c2ccccc2)c2ccc(Cl)cc2)CC1` (configuration not stated): for the setting “compound concentration: 3 uM”, the cell viability amounted to 108%.
The same measure, in the same setting: with `O=C(O)COCCN1CCN(C(c2ccccc2)c2ccc(Cl)cc2)CC1` (configuration not stated) [Cetirizine dihydrochloride] the figure was 100 ± 11%.
On to `CCCCC(CC)CCC(CC(C)C)OS(=O)(=O)O` (configuration not stated), for which, where the note is “compound concentration: 3 uM”, the cell viability worked out at 116%.
On to `CC(Cc1ccccc1)(NC(=O)CN)c1ccccc1` (racemic), for which the cell viability (compound concentration: 3 uM) was 101%.
Still for that read-out and setting: in the case of `CCCCCCCCCCCCCCCC(=O)OC[C@@H](NC(=O)C(Cl)Cl)[C@H](O)c1ccc([N+](=O)[O-])cc1` it was 110%; in that of `N[C@@H](Cc1c[nH]c2ccc(O)cc12)C(=O)O` [5-Hydroxy-L-tryptophan], 105%.
As to `N[C@@H](Cc1c[nH]c2ccc(O)cc12)C(=O)O` [Oxitriptan; L-5-Hydroxytryptophan;], the cell viability under setting [1] amounted to 103%.
With `OCC1OC(n2cnc3c(NC4CCCCC4)ncnc32)C(O)C1O` (configuration not stated) [N6-Cyclohexyladenosine], for the setting “compound concentration: 3 uM”, the cell viability is 111%.
As to `O=C(O)/C=C/c1ccc(O)c(O)c1` [Caffeic acid], the cell viability came out at 91% under setting [1] and 128% (compound concentration: 3 uM).
As to `O=C(O)/C=C/c1ccc(O)c(O)c1` [Caffeic Acid], under “compound concentration: 3 uM”, the cell viability amounted to 86.9%.
For `Clc1ccc(Cn2c(CN3CCCC3)nc3ccccc32)cc1` [Clemizole hydrochloride], the cell viability (compound concentration: 3 uM) was found to be 108 ± 1.4%.
For `Clc1ccc(Cn2c(CN3CCCC3)nc3ccccc32)cc1`, the cell viability (compound concentration: 3 uM) came out at 109%.
For the compound `COc1cc2nc(N(C)CCCNC(=O)C3CCCO3)nc(N)c2cc1OC` (configuration not stated) [Alfuzosin hydrochloride], the cell viability (compound concentration: 3 uM) is 93.9 ± 3%.
Still for that read-out and setting: with `COc1cc2nc(N(C)CCCNC(=O)C3CCCO3)nc(N)c2cc1OC` (configuration not stated) the figure was 98.7% and 103%; with `CN1C[C@H](O)[C@@H](O)[C@H](O)[C@H]1CO` [N-Methyl-1-deoxynojirimycin], 107%.
Still for that read-out and setting: with `N=C(N)NC(=O)Cc1c(Cl)cccc1Cl` [Guanfacine] the figure was 84.2%.
For `N=C(N)NC(=O)Cc1c(Cl)cccc1Cl`, for the setting “compound concentration: 3 uM”, the cell viability was found to be 109%.
On the same count and under the same terms, with `N=C(N)NC(=O)Cc1c(Cl)cccc1Cl` [Guanfacine hydrochloride] the figure was 102 ± 10%.
As for `N[C@@H](Cc1cc(I)c(Oc2cc(I)c(O)c(I)c2)c(I)c1)C(=O)O` [L-Thyroxine sodium salt hydrate], the cell viability under setting [1] was 93.7%.
For `N[C@@H](Cc1cc(I)c(Oc2cc(I)c(O)c(I)c2)c(I)c1)C(=O)O` [L-thyroxine], under “compound concentration: 3 uM”, the cell viability is 98.4%.
